We go through one compound from the Bradley open melting point set (2014).

For orientation: melting point means the temperature of the solid-liquid transition. Take `CCC[C@H](NC(=O)OC(C)(C)C)C(=O)O` [N-boc-L-norvaline]: the melting point is 45 °C.
